Results: US7122657B2, “UDP-glucose aglycon-glucosytransferase” (priority 1999, dated 2006)
At least one compound was matched to its structure with a doubt left.

Tested on: glucosyltransferase activity of desalted crude etiolated Sorghum seedling extract
Assay: Substrate specificity of desalted crude etiolated Sorghum seedling extract (TLC, 14C-UDP-glucose)
Format: biochemical, Sorghum bicolor
Parameters: key: ▪: indicate that a radiolabelled product was visualised after incubation with the respective aglycone substrate; □: indicate that no radiolablled products could be detected under the experimental conditions employed
Settings: aglycone substrate
Experimental: Generally a 20 μl reaction mixture including • 100 mM Tris HCl (pH 7.9), • 1–5 μM ^14C-UDP-glucose (11.0 GBq mmol^−1, Amersham LIFE SCIENCE), • 0–300 μM UDP-glucose, • 0–20 mM p-hydroxymandelonitrile (dissolved in water, freshly prepared), • 25 mM γ-gluconolactone, • 0–1 mg BSA and • 0.5–10 μl of protein preparation, is incubated at 30° C. between 2 minutes and 2 hours. Thereafter the reaction is terminated by the addition of 1/10 of the reaction volume of 10% acetic acid. The same assay conditions are used to determine the glucosylation of mandelonitrile, benzoic acid, benzylalcohol, geraniol and a number of other aglycons.
For TLC analysis the reaction mixture is applied to Silica Gel 60 F254 plates (Merck), dried and eluted in a solvent containing ethyl acetate:acetone:dichloromethane:methanol:[…] (40:30:12:10:8, v/v). Plates are dried for one hour at room temperature and exposed to storage phosphorlmaging plates (Molecular Dynamics) prior to scanning on a Storm 860 Phosphorimager (Molecular Dynamics). […]
Glucosyltransterase activity was determined by TLC using ^14C-UDP-glucose. […] Empty boxes (□) indicate that no radiolablled products could be detected under the experimental conditions employed. Figures in brackets indicate the relative Vmax for each aglycon with calculated standard deviations.

SMILES: Oc1cc(O)c2cc(O)c(-c3ccc(O)c(O)c3)[o+]c2c1 [cyanidin]
- ACTIVITY Crude Sorghum extract (radiolabelled glucoside product): ▪
